Results as given in paper PMC6698665.
These are yes or no findings as the source states them, for the method shown. Binding seen in cells or lysates may run through a third protein. Some entries that bind do so weakly or less than the wild type.

The chains behind the UniProt entries cited, without tags or fusion partners.
UniProt Q9GZX7: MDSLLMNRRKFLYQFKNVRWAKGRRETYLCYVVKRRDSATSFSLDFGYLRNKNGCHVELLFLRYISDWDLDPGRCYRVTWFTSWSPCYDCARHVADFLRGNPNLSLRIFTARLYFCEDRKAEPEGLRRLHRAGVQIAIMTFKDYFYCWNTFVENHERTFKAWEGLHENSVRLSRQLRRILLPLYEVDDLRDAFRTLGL
UniProt P09874: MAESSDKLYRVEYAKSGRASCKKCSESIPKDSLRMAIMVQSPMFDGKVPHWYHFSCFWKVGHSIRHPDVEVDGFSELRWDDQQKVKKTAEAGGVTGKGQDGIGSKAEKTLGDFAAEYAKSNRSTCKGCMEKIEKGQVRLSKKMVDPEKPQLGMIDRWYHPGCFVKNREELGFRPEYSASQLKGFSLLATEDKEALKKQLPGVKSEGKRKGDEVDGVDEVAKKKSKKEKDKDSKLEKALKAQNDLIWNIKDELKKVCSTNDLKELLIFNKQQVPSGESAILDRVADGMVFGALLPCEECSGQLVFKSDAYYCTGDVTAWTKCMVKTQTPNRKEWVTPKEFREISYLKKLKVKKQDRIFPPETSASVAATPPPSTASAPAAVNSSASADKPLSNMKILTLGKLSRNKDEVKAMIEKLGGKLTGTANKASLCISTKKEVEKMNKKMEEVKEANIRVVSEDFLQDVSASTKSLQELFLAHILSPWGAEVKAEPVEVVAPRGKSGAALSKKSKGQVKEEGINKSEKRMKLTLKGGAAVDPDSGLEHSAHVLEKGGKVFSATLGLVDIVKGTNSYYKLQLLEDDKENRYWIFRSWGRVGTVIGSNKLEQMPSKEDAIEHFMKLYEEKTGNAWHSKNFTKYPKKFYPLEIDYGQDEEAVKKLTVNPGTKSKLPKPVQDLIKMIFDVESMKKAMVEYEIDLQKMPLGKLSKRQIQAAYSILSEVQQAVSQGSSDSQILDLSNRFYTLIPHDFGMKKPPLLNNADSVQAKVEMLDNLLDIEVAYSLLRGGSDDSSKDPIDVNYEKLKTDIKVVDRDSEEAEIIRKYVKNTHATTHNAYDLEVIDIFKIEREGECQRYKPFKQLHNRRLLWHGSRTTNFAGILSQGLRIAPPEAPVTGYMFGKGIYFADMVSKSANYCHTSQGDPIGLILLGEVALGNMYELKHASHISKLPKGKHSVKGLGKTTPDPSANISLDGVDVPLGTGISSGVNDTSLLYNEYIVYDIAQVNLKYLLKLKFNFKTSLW

Target: activation-induced deaminase (AID) (human (endogenous in Raji)) (UniProt Q9GZX7)
Test: co-IP; anti-AID antibody (clone EK2/2H5) on Protein G-Sepharose, Raji cell lysate (0.5% IGEPAL or NP40, 150 mM NaCl, 15 U/ml DNase), overnight at 4°C, 12 washes with 300 mM NaCl; Western blot for PARP-1 and AID; cells untreated or treated with 0.1% MMS for 1 h (interaction more pronounced with MMS)

poly(ADP-ribose) polymerase-1 (PARP-1) (from UniProt P09874 1-1014) (enzyme)
binding: binds
